Reference: PubChem BioAssay AID504774 (Drosophila RNAi Screening Center, 2011)
In all, the deposit lists about 23,000 reagents; this is a random part of those that have a named target and a result. 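Values are quantile-normalised luminescence on an arbitrary scale; higher means more cells surviving MMS.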

Purpose: 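Fly genes whose loss alters survival after alkylation damage to DNA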 (primary screen)
Cell system: Drosophila Kc167 cells
Reagents: long dsRNA against Drosophila genes, about 0.25 µg dsRNA per well
Duration: about 6 days: 3 days knock-down, then 3 days with or without MMS
Treatment: methyl methanesulphonate 0.004% (w/v) for 3 days after knock-down
Read-out: 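ATP-dependent luminescence as a measure of live cells in MMS-exposed wells, quantile normalised within each plate, with replicate values also given as a mean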
Reading the numbers: mean viability with MMS and viability with MMS: higher = more surviving cells after MMS

| gene | dsRNA | mean viability with MMS | viability with MMS, replicate 1 | viability with MMS, replicate 2 |
| --- | --- | --- | --- | --- |
| cert | DRSC09674 | 3.66e6 | 4.24e6 | 4.07e6 |
| Top3beta | DRSC18724 | 3.28e6 | 3.91e6 | 4.08e6 |
| bap | DRSC16908 | 1.86e6 | 4.07e6 | 3.97e6 |
| Sf3b6 | DRSC09972 | 3.19e6 | 3.60e6 | 3.56e6 |
| ClC-b | DRSC07220 | 3.66e6 | 4.06e6 | 4.15e6 |
| CG10909 | DRSC14282 | 3.59e6 | 3.87e6 | 4.23e6 |
| mRpL36 | DRSC10337 | 3.38e6 | 3.82e6 | 3.80e6 |
| Gr22a | DRSC22283 | 3.54e6 | 4.03e6 | 3.98e6 |
| Elys | DRSC19571 | 3.33e6 | 3.70e6 | 3.77e6 |
| CG13054 | DRSC09935 | 3.74e6 | 4.24e6 | 4.16e6 |
| fos28F (retired record) | DRSC03391 | 3.72e6 | 4.31e6 | 4.11e6 |
| NijC | DRSC14851 | 3.50e6 | 3.98e6 | 3.98e6 |
| Syt1 | DRSC00156 | 3.55e6 | 3.98e6 | 4.09e6 |
| Syt1 | DRSC00157 | 3.55e6 | 3.96e6 | 4.10e6 |
| Syt1 | DRSC00158 | 3.43e6 | 3.78e6 | 4.04e6 |
| Syt1 | DRSC00840 | 3.63e6 | 4.11e6 | 4.14e6 |
| Syt1 | DRSC22077 | 3.72e6 | 4.20e6 | 4.15e6 |
| Or85c | DRSC16766 | 3.59e6 | 4.05e6 | 4.11e6 |
| CG18132 | DRSC00518 | 3.49e6 | 3.92e6 | 3.99e6 |
| CG31900 (retired record) | DRSC21835 | 3.20e6 | 3.81e6 | 3.78e6 |
| step | DRSC03694 | 3.44e6 | 3.92e6 | 3.87e6 |
| step | DRSC03699 | 3.56e6 | 4.12e6 | 3.97e6 |
| CG32576 | DRSC19136 | 3.67e6 | 4.17e6 | 4.06e6 |

Quoted from the listing for reference:
| gene | dsRNA | mean viability with MMS | viability with MMS, replicate 1 | viability with MMS, replicate 2 |
| --- | --- | --- | --- | --- |
| NijC | DRSC14851 | 3.50e6 | 3.98e6 | 3.98e6 |
| Syt1 | DRSC00156 | 3.55e6 | 3.98e6 | 4.09e6 |
| Syt1 | DRSC00157 | 3.55e6 | 3.96e6 | 4.10e6 |
| Syt1 | DRSC00158 | 3.43e6 | 3.78e6 | 4.04e6 |

Additional records follow.
| gene | dsRNA | mean viability with MMS | viability with MMS, replicate 1 | viability with MMS, replicate 2 |
| --- | --- | --- | --- | --- |
| Ork1 | DRSC20266 | 3.62e6 | 4.21e6 | 3.93e6 |
| CG13833 | DRSC14683 | 3.52e6 | 4.06e6 | 3.90e6 |
| Timp | DRSC17082 | 3.63e6 | 4.04e6 | 4.23e6 |
| CG5783 | DRSC02894 | 3.50e6 | 3.93e6 | 4.03e6 |
| scramb2 | DRSC08543 | 3.53e6 | 3.94e6 | 4.05e6 |
| Vajk2 | DRSC02540 | 3.62e6 | 4.06e6 | 4.13e6 |
| Pnn | DRSC16415 | 3.52e6 | 4.02e6 | 3.98e6 |
| dre4 | DRSC08714 | 3.43e6 | 3.91e6 | 3.89e6 |
| Ssadh | DRSC15621 | 3.63e6 | 4.16e6 | 4.05e6 |
| Cyp4s3 | DRSC20241 | 3.54e6 | 3.93e6 | 4.11e6 |
| Cyp4s3 | DRSC22340 | 3.46e6 | 3.95e6 | 3.93e6 |
| Or43a | DRSC07485 | 3.47e6 | 3.96e6 | 3.93e6 |
| phr | DRSC07662 | 3.54e6 | 4.06e6 | 3.96e6 |
| CG46301 | DRSC01916 | 3.69e6 | 4.02e6 | 3.99e6 |
| Yod1 | DRSC10433 | 3.67e6 | 4.11e6 | 4.21e6 |
| CG12523 | DRSC09895 | 3.65e6 | 3.92e6 | 3.84e6 |
| dock | DRSC00812 | 3.47e6 | 3.83e6 | 3.97e6 |
| scf | DRSC08735 | 3.66e6 | 4.19e6 | 4.05e6 |
| slpr | DRSC18225 | 3.58e6 | 4.06e6 | 3.97e6 |
| slpr | DRSC23321 | 3.53e6 | 4.04e6 | 4.00e6 |
| CG32112 | DRSC09815 | 3.62e6 | 4.16e6 | 4.00e6 |
| Dnaaf6 | DRSC10473 | 3.72e6 | 4.17e6 | 4.19e6 |
| Mcm6 | DRSC18680 | 3.66e6 | 4.14e6 | 3.86e6 |
